Data: publication PMC4751492
These are yes or no findings as the source states them, for the method shown. Some results given as binding are weak or reduced against the parent protein; the word gives no strength.

Amino acid sequences for entries named in this document (tags omitted).
UniProt P32120: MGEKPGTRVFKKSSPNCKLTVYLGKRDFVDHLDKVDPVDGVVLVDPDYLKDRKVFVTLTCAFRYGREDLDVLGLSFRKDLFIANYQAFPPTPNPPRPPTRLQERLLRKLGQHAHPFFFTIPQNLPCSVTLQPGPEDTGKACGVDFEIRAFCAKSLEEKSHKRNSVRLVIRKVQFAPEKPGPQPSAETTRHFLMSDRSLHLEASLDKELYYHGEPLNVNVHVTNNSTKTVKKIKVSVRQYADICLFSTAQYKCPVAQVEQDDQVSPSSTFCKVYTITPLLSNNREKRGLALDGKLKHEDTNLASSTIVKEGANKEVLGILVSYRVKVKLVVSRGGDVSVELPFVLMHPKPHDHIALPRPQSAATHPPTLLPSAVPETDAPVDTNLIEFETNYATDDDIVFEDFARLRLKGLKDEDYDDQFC
UniProt O14733: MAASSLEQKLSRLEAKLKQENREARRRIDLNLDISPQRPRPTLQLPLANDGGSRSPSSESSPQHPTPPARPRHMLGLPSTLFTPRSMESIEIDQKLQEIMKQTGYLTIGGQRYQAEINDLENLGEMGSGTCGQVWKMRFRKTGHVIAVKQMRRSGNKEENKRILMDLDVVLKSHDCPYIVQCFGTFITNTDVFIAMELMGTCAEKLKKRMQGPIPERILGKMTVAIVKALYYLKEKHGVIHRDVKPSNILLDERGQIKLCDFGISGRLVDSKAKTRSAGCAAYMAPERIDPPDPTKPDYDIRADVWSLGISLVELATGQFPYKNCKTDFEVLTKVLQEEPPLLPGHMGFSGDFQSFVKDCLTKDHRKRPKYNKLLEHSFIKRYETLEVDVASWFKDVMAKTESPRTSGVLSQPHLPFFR

Columns and labels:
[1] = molecular target: MBP-T1A (first 25 residues of arrestin-3 fused to MBP); assay: pull-down; MBP fusions (10-30 μg) immobilised on amylose resin, 1 h 4 °C; purified kinase (10 μg in 20 mM Tris/150 mM NaCl) added 2 h 4 °C; washed with 50 mM HEPES-Na pH 7.3, 150 mM NaCl; eluted with 50 mM maltose; SDS-PAGE and Western blot; both purified
[2] = molecular target: MBP-arrestin-3 (full-length arrestin-3 fused to MBP) (UniProt P32120); assay: as above

- binding [1]: binds
- binding [2]: binds
Substance: GST-MKK7 (from UniProt O14733 1-419) (enzyme)
